Structures can show the parent of a compound that is named as a salt. Some results were stated once for a whole list of compounds, not compound by compound. At least one compound was matched to its structure with a doubt left.
Target: T1, RIPK2 (Homo sapiens, UniProt O43353)
T1 construct: Full length FLAG His tagged RIPK2 was purified from a Baculovirus expression system; FLAG (N); 6His (N); made in house; host or cells: Spodoptera frugiperda (Sf9) insect cells, baculovirus
Assay: Fluorescent polarization based binding assay at the ATP binding pocket of RIPK2
Details: FP competition with fluorescently labeled ATP competitive ligand (5 nM); full length FLAG His tagged RIPK2; mean of a minimum of 2 experiments

Amino acid sequences for entries named in this document (tags omitted).
UniProt O43353, whole entry: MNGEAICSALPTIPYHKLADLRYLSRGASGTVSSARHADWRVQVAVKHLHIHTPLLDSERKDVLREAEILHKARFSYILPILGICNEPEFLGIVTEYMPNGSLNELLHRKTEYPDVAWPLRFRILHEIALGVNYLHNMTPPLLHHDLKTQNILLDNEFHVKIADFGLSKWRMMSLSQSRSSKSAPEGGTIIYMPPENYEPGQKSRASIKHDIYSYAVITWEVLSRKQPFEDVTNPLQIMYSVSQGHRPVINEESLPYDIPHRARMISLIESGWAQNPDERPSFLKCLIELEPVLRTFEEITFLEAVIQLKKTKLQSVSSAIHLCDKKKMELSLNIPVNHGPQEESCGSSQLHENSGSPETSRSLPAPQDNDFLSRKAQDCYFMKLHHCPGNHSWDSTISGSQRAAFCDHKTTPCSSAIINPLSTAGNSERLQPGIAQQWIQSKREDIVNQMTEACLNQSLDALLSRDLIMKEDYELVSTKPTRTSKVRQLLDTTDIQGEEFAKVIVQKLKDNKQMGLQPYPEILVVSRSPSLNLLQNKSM

Row | Compound | mean pIC50
1 | Cc1cc(Nc2nccc(N(C)c3n[nH]c4c(F)c(C)ccc34)n2)cc(S(N)(=O)=O)c1.Cl [Example 144, 3-({4-[(7-fluoro-6-methyl-1H-indazol-3-yl)(methyl)amino]-2-pyrimidinyl}amino)-5-methylbenzene sulfonamide hydrochloride] | greater than or equal to 6.0
2 | COc1cc(Nc2nccc(Nc3n[nH]c4c(F)cccc34)n2)cc(S(C)(=O)=O)c1 [Example 145, N4-(7-fluoro-1H-indazol-3-yl)-N2-(3-methoxy-5-(methylsulfonyl)phenyl)pyrimidine-2,4-diamine] | greater than or equal to 6.0
3 | COc1ccc(Nc2nccc(N(C)c3n[nH]c4c(F)cccc34)n2)cc1S(N)(=O)=O [Example 146, 5-((4-((7-fluoro-1H-indazol-3-yl)(methyl)amino)pyrimidin-2-yl)amino)-2-methoxybenzene sulfonamide] | greater than or equal to 6.0
4 | Cc1cc(Nc2nccc(Nc3n[nH]c4cc(C)ccc34)n2)cc(S(C)(=O)=O)c1 [Example 147, N4-(6-methyl-1H-indazol-3-yl)-N2-[3-methyl-5-(methylsulfonyl)phenyl]-2,4-pyrimidinediamine] | greater than or equal to 6.0
5 | COc1cc(Nc2nccc(Nc3n[nH]c4c(F)c(F)ccc34)n2)cc(S(C)(=O)=O)c1 [Example 148, N4-(6,7-difluoro-1H-indazol-3-yl)-N2-[3-(methyloxy)-5-(methylsulfonyl)phenyl]-2,4-pyrimidinediamine] | greater than or equal to 6.0
6 | Cc1cc(Nc2nccc(N(C)c3n[nH]c4cc(F)c(F)cc34)n2)cc(S(N)(=O)=O)c1 [Example 149, 3-((4-((5,6-difluoro-1H-indazol-3-yl)(methyl)amino)pyrimidin-2-yl)amino)-5-methylbenzene sulfonamide] | greater than or equal to 6.0
7 | COc1ccc(Nc2nccc(N(C)c3n[nH]c4cc(F)c(F)cc34)n2)cc1S(C)(=O)=O [Example 150, N4-(5,6-difluoro-1H-indazol-3-yl)-N2-(4-methoxy-3-(methylsulfonyl)phenyl)-N4-methylpyrimidine-2,4-diamine] | greater than or equal to 6.0
8 | COc1ccc(Nc2nccc(N(C)c3n[nH]c4c(F)cccc34)n2)cc1S(C)(=O)=O [Example 151, N4-(7-fluoro-1H-indazol-3-yl)-N2-(4-methoxy-3-(methylsulfonyl)phenyl)-N4-methylpyrimidine-2,4-diamine] | greater than or equal to 6.0
9 | Cc1cc(Nc2nccc(N(C)c3n[nH]c4c(F)cccc34)n2)cc(S(=O)(=O)C2CCOCC2)c1 [Example 152, N4-(7-fluoro-1H-indazol-3-yl)-N4-methyl-N2-(3-methyl-5-((tetrahydro-2H-pyran-4-yl)sulfonyl)phenyl) pyrimidine-2,4-diamine] | greater than or equal to 6.0
10 | COc1cc(Nc2nccc(N(C)c3n[nH]c4c(F)c(F)ccc34)n2)cc(S(N)(=O)=O)c1 [Example 153, 3-({4-[(6,7-difluoro-1H-indazol-3-yl)(methyl)amino]-2-pyrimidinyl}amino)-5-(methyloxy) benzene sulfonamide] | greater than or equal to 6.0
11 | COc1cc(Nc2nccc(N(C)c3n[nH]c4cc(F)c(F)cc34)n2)cc(S(N)(=O)=O)c1 [Example 154, 3-((4-((5,6-difluoro-1H-indazol-3-yl)(methyl)amino)pyrimidin-2-yl)amino)-5-methoxybenzene sulfonamide] | greater than or equal to 6.0
12 | COc1cc(Nc2nccc(N(C)c3n[nH]c4cc(C)c(F)cc34)n2)cc(S(N)(=O)=O)c1 [Example 155, 3-({4-[(5-fluoro-6-methyl-1H-indazol-3-yl)(methyl)amino]-2-pyrimidinyl}amino)-5-(methyloxy) benzene sulfonamide] | greater than or equal to 6.0
13 | COc1cc(Nc2nccc(N(C)c3n[nH]c4c(F)c(C)ccc34)n2)cc(S(N)(=O)=O)c1 [Example 156, 3-({4-[(7-fluoro-6-methyl-1H-indazol-3-yl)(methyl)amino]-2-pyrimidinyl}amino)-5-(methyloxy) benzene sulfonamide] | greater than or equal to 6.0
14 | Cc1cc(Nc2nccc(Nc3n[nH]c4c(F)c(F)ccc34)n2)cc(S(N)(=O)=O)c1 [Example 157, 3-({4-[(6,7-difluoro-1H-indazol-3-yl)amino]-2-pyrimidinyl}amino)-5-methylbenzene sulfonamide] | greater than or equal to 6.0
15 | COc1cc(Nc2nccc(Nc3n[nH]c4c(F)cccc34)n2)cc(S(N)(=O)=O)c1 [Example 158, 3-((4-((7-fluoro-1H-indazol-3-yl)amino)pyrimidin-2-yl)amino)-5-methoxybenzene sulfonamide] | greater than or equal to 6.0
16 | COc1cc(Nc2nccc(N(C)c3n[nH]c4c(F)cccc34)n2)cc(S(N)(=O)=O)c1 [Example 159, 3-((4-((7-fluoro-1H-indazol-3-yl)(methyl)amino)pyrimidin-2-yl)amino)-5-methoxybenzene sulfonamide] | greater than or equal to 6.0
17 | CCOc1ccc(Nc2nccc(N(C)c3n[nH]c4c(F)cccc34)n2)cc1S(C)(=O)=O [Example 160, N^2-[4-(ethyloxy)-3-(methylsulfonyl)phenyl]-N^4-(7-fluoro-1H-indazol-3-yl)-N^4-methyl-2,4-pyrimidinediamine] | greater than or equal to 6.0
18 | COc1cc(Nc2nccc(N(C)c3n[nH]c4c(C(F)(F)F)cccc34)n2)cc(S(N)(=O)=O)c1 [Example 161, 3-methoxy-5-((4-(methyl(7-(trifluoromethyl)-1H-indazol-3-yl)amino)pyrimidin-2-yl)amino) benzene sulfonamide] | greater than or equal to 6.0
19 | Cc1cc(Nc2nccc(N(C)c3n[nH]c4cc(C(F)(F)F)ccc34)n2)cc(S(N)(=O)=O)c1 [Example 162, 3-methyl-5-[(4-{methyl[6-(trifluoromethyl)-1H-indazol-3-yl]amino}-2-pyrimidinyl)amino] benzene sulfonamide hydrochloride] | greater than or equal to 6.0
20 | COc1cc(Nc2nccc(N(C)c3n[nH]c4cc(C(F)(F)F)ccc34)n2)cc(S(N)(=O)=O)c1 [Example 163, 3-(methyloxy)-5-[(4-{methyl[6-(trifluoromethyl)-1H-indazol-3-yl]amino}-2-pyrimidinyl)amino] benzene sulfonamide hydrochloride] | greater than or equal to 6.0
21 | Cc1cc(Nc2nccc(N(C)c3n[nH]c4c(C(F)(F)F)cccc34)n2)cc(S(N)(=O)=O)c1 [Example 164, 3-methyl-5-((4-(methyl(7-(trifluoromethyl)-1H-indazol-3-yl)amino)pyrimidin-2-yl)amino) benzene sulfonamide] | greater than or equal to 6.0
22 | Cc1cnc2[nH]nc(Nc3ccnc(Nc4cccc(S(C)(=O)=O)c4)n3)c2c1.O=C(O)C(F)(F)F [Example 166, N4-(5-methyl-1H-pyrazolo[3,4-b]pyridin-3-yl)-N2-[3-(methylsulfonyl)phenyl]-2,4-pyrimidinediamine trifluoroacetate] | greater than or equal to 6.0
23 | Cc1cnc2[nH]nc(Nc3ccnc(Nc4ccc(C)c(S(C)(=O)=O)c4)n3)c2c1.O=C(O)C(F)(F)F [Example 167, N2-[4-methyl-3-(methylsulfonyl)phenyl]-N4-(5-methyl-1H-pyrazolo[3,4-b]pyridin-3-yl)-2,4-pyrimidinediamine trifluoroacetate] | greater than or equal to 6.0
24 | Cc1cnc2[nH]nc(Nc3ccnc(Nc4ccc(F)c(S(C)(=O)=O)c4)n3)c2c1.O=C(O)C(F)(F)F [Example 168, N2-[4-fluoro-3-(methylsulfonyl)phenyl]-N4-(5-methyl-1H-pyrazolo[3,4-b]pyridin-3-yl)-2,4-pyrimidinediamine trifluoroacetate] | greater than or equal to 6.0
25 | CS(=O)(=O)c1cccc(Nc2nccc(Nc3n[nH]c4ncc(F)cc34)n2)c1.O=C(O)C(F)(F)F [Example 169, N4-(5-fluoro-1H-pyrazolo[3,4-b]pyridin-3-yl)-N2-[3-(methylsulfonyl)phenyl]-2,4-pyrimidinediamine trifluoroacetate] | greater than or equal to 6.0
26 | CS(=O)(=O)c1cc(Nc2nccc(Nc3n[nH]c4ncc(F)cc34)n2)ccc1F.O=C(O)C(F)(F)F [Example 170, N2-[4-fluoro-3-(methylsulfonyl)phenyl]-N4-(5-fluoro-1H-pyrazolo[3,4-b]pyridin-3-yl)-2,4-pyrimidinediamine trifluoroacetate] | greater than or equal to 6.0
27 | Cc1ccc(Nc2nccc(Nc3n[nH]c4ncc(F)cc34)n2)cc1S(C)(=O)=O.O=C(O)C(F)(F)F [Example 171, N4-(5-fluoro-1H-pyrazolo[3,4-b]pyridin-3-yl)-N2-[4-methyl-3-(methylsulfonyl)phenyl]-2,4-pyrimidinediamine trifluoroacetate] | greater than or equal to 6.0
28 | Cc1ccc(Nc2nccc(Nc3n[nH]c4ncc(F)cc34)n2)cc1S(=O)(=O)C(C)C.O=C(O)C(F)(F)F [Example 172, N4-(5-fluoro-1H-pyrazolo[3,4-b]pyridin-3-yl)-N2-{4-methyl-3-[(1-methylethyl)sulfonyl]phenyl}-2,4-pyrimidinediamine trifluoroacetate] | greater than or equal to 6.0
29 | CN(c1ccnc(Nc2cccc(S(C)(=O)=O)c2)n1)c1n[nH]c2ncc(F)cc12 [Example 173, N4-(5-fluoro-1H-pyrazolo[3,4-b]pyridin-3-yl)-N4-methyl-N2-[3-(methylsulfonyl)phenyl]-2,4-pyrimidinediamine] | greater than or equal to 6.0
30 | Cc1ccc(Nc2nccc(Nc3n[nH]c4ncc(F)cc34)n2)cc1S(=O)(=O)C(C)C [Example 174, N4-(5-fluoro-1H-pyrazolo[3,4-b]pyridin-3-yl)-N2-{4-methyl-3-[(1-methylethyl)sulfonyl]phenyl}-2,4-pyrimidinediamine] | greater than or equal to 6.0
